Measured values as given in publication PMC4316790.

Molecular target: T1, NlpI-M (mature NlpI without signal peptide), C-terminal His-tagged, from pQE80-nlpI-M (E. coli) (UniProt P0AFB1)
T1 sequence: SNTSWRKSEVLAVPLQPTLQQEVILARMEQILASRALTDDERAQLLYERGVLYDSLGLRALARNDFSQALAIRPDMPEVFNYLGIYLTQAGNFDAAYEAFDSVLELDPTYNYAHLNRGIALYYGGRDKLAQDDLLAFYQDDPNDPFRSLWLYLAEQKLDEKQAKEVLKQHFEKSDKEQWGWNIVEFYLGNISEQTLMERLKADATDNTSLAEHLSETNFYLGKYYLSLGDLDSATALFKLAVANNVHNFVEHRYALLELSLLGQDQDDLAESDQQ
Assay: affinity purification with mass spectrometry; NlpI-M expressed and purified in the wild type strain; co-eluted proteins found by Western blot and MS analysis

- binding: binds
B1: Heat shock protein IbpB (protein, UniProt P0C058 1-142)
chain: MRNFDLSPLMRQWIGFDKLANALQNAGESQSFPPYNIEKSDDNHYRITLALAGFRQEDLEIQLEGTRLSVKGTPEQPKEEKKWLHQGLMNQPFSLSFTLAENMEVSGATFVNGLLHIDLIRNEPEPIAAQRIAISERPALNS

No constants are given. Whether binding was seen depends on the method and setting. Binding seen in cells or lysates may run through a third protein. A yes stands for co-enrichment or nearness to the bait. Other partners may have been found. Tags and fused reporters may be left off the sequences shown.
